Measurements: PubChem BioAssay AID1439 (NMMLSC, 2008)
In all, about 220,000 compounds went through this assay and about 770 (0.35%) were called active. Inconclusive results, whose numbers are uncertain, are shown with a selection of clear calls. Cut-off read from the data, not from the text of the source: active = binding response below about 49% or above about 150%; inconclusive = no clear call, values can overlap the other calls; inactive = in between.

Sequences of proteins named here, by UniProt entry; tags and fusion partners are left off.
UniProt P09471, whole entry, looked up: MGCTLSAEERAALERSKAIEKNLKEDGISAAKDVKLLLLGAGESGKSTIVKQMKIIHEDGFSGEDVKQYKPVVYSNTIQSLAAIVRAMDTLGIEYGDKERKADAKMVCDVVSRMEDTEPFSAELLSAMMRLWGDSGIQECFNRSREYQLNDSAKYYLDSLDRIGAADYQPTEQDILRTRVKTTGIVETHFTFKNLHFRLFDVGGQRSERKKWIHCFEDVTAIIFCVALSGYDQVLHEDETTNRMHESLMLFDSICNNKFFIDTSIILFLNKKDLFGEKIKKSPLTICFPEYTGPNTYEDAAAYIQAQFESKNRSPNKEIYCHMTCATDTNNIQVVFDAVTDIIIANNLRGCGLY

Each compound was assayed against Guanine nucleotide-binding protein G(o) subunit alpha (Homo sapiens) (UniProt P09471) (assay: RGS7-Galphao binding modulators, primary screen, biochemical, multiplexed bead flow cytometry (AID 1439;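 note: fluorescent Galphao held in activated GDP-AlF4 state binding bead-coupled RGS7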)). Conditions: at 10 µM, actives lie on both sides.
In the case of `Cc1cc(C)c2c(n1)sc1c(=O)n(CC(=O)c3ccccc3)cnc12`, the binding response (% of control) is reported as inconclusive: 63%. In the case of `CCOc1ccc(OCC)c(NC(=O)C2CCCN(c3ncccn3)C2)c1` (stereo not given), the binding response (% of control) is reported as inactive: 103%. In the case of `CCN1CNC(=S)N(c2cccc(C)c2)C1`, the binding response (% of control) is reported as inconclusive: 311%. For `O=C(N/N=C/c1ccc([N+](=O)[O-])cc1)c1c[nH]c2ccccc12`, the binding response (% of control) was inconclusive: 58.5%. For `Cc1cc(C(=O)NN=C2CCCCCC2)c(C)o1`, the binding response (% of control) was inconclusive: 109%. In the case of `CCOC(=O)c1nc(C)nc(Sc2n[nH]c(-c3cc(C(F)(F)F)cc(C(F)(F)F)c3)n2)c1C`, the binding response (% of control) is reported as inconclusive: 115%. `CCOC(=O)CN1N=C(/C=C/c2ccc(OCC)cc2)CCC1=O` was tested, and the binding response (% of control) was inconclusive: 106%. In the case of `CC(C)N1CCC(N2CCN(Cc3ccc(Oc4ncccn4)cc3)CC2CCO)CC1` (stereo not given), the binding response (% of control) is reported as inconclusive: 754%. For `Nn1c(SCc2ccc(F)cc2)nnc1-c1cccnc1`, the binding response (% of control) was inconclusive: -85.5%. In the case of `Cc1ccc(-n2[nH]c(C)c(C=Nc3ccc(S(=O)(=O)Nc4nccs4)cc3)c2=O)c(C)c1`, the binding response (% of control) is reported as inactive: 98.5%. With `Cc1cc(-c2cc(-c3ccc(Cl)cc3)on2)nc(NC2CCCC2)n1` the binding response (% of control) was inconclusive: 117%. In the case of `C=CCn1c(C(CCC(C)C)CC(C)(C)O)n[nH]c1=S` (stereo not given), the binding response (% of control) is reported as inactive: 111%. For `COc1ccc(NS(=O)(=O)c2ccc(N3CCOCC3)c(NC(=O)c3ccccc3Br)c2)cc1`, the binding response (% of control) was inconclusive: 675%. In the case of `CC(=O)Nc1ccc(C=C(C(C)=O)C(C)=O)cc1`, the binding response (% of control) is reported as inconclusive: 85.7%. For `O=C(Nc1ccc(S(=O)(=O)Nc2nccs2)cc1)c1cc(=O)[nH]c2ccccc12`, the binding response (% of control) was inconclusive: -70.5%. In the case of `COC(=O)c1ccc(CSc2nc3sc(C)c(C)c3c(=O)[nH]2)cc1`, the binding response (% of control) is reported as inconclusive: 123%. With `CC(C)(C)OC(=O)N1CCC(CNC(=O)c2cccs2)CC1` the binding response (% of control) was inconclusive: 109%. For `CCN(CC)CCNc1nc(-n2nc(C)cc2C)nc2sc3c(c12)CC(C)(C)OC3`, the binding response (% of control) was inconclusive: 101%. In the case of `Cc1c(Cl)cccc1NC(=O)CCC(=O)N/N=C/c1ccc[nH]1`, the binding response (% of control) is reported as inactive: 102%. With `COC(=O)/C(=C\Nc1ccc(Oc2ccc(F)cc2F)nc1)NC(=O)c1ccccc1` the binding response (% of control) was inconclusive: 195%. For `CCN1CCN(c2nc(Nc3ccc(NC(C)=O)cc3)nc(Nc3ccc(NC(C)=O)cc3)n2)CC1`, the binding response (% of control) was inconclusive: 129%. With `O=C(COC(=O)c1cccc(S(=O)(=O)N2CCc3ccccc32)c1)NCc1ccco1` the binding response (% of control) was inconclusive: 97%. In the case of `Cc1cc2c(cc1S(=O)(=O)Nc1cccc(F)c1C)NC(=O)CO2`, the binding response (% of control) is reported as inconclusive: 107%. In the case of `COc1ccc(C(CNC(=O)c2ccc(S(=O)(=O)N(C)C)cc2)N2CCCCC2)cc1` (stereo not given), the binding response (% of control) is reported as inconclusive: 104%. In the case of `COCCN1C=C2C(=O)C(C)(OC(=O)C3CCCC3)C(=O)C=C2C=C1c1ccsc1` (stereo not given), the binding response (% of control) is reported as inconclusive: 70.4%. With `Cc1ccccc1NC(=S)N(Cc1ccccc1)Cc1cccs1` the binding response (% of control) was inconclusive: 95.4%. For `Cc1c(NC(=O)CNCc2ccc3c(c2)OCO3)c(=O)n(-c2ccccc2)n1C`, the binding response (% of control) was inconclusive: 109%. For `O=C(Nc1cccc(C(=O)O)c1)/C(=C\c1ccc2c(c1)OCO2)NC(=O)c1ccc(Br)cc1`, the binding response (% of control) was inactive: 97.7%. In the case of `COCCOC(=O)/C(C#N)=C/c1cn(Cc2ccccc2)nc1-c1cccnc1`, the binding response (% of control) is reported as inconclusive: 111%. `Cc1cc(NC(=O)C(=O)c2cn(C)c3ccccc23)no1` was tested, and the binding response (% of control) was active: 165% [activator]. With `CCCCC1C2C(=O)N(c3ccc(C)cc3)C(=O)C2ON1c1ccccc1` (stereo not given) the binding response (% of control) was inconclusive: 98.7%. For `CCOc1ccc(C2NC(=S)NC3=C2CCc2ccccc23)cc1` (stereo not given), the binding response (% of control) was inconclusive: 127%. `COc1ccc(Br)cc1CNC(=O)Cc1c(C(=O)O)[nH]c2ccc(Cl)cc12` was tested, and the binding response (% of control) was inconclusive: 77.2%. For `Cn1nnnc1SCC(=O)N1CCN(S(=O)(=O)c2ccccc2)CC1`, the binding response (% of control) was inconclusive: 119%. For `CC1CN=C(c2cccn2Cc2ccc(F)cc2Cl)O1` (stereo not given), the binding response (% of control) was inactive: 101%. With `Cc1ccc(NC(=S)N2CCN(C)CC2)c(C)c1` the binding response (% of control) was inactive: 105%. For `C#CCCOC(=O)Nc1ccccc1`, the binding response (% of control) was inconclusive: 185%. `O=C1C2C(c3cccc(/C=C/c4ccccc4)c3)CC=CC2C(c2ccc(C(F)(F)F)cc2)N1Cc1ccccc1` (stereo not given) was tested, and the binding response (% of control) was inconclusive: 84.1%. In the case of `COc1ccc(NC(=S)Nc2cccc(Cl)c2)cc1OC`, the binding response (% of control) is reported as inactive: 100%. In the case of `CN(CC(=O)Nc1ccc(F)cc1)CC(=O)Nc1ccc(F)c(F)c1F`, the binding response (% of control) is reported as inactive: 104%. With `CC(C)CC(NC(=O)c1ccccc1)C(=O)OCC(=O)Nc1ccc(Br)cn1` (stereo not given) the binding response (% of control) was active: 238% [activator]. With `COc1ccc(N(CC(=O)NCc2ccccc2)C(=O)CCC(=O)Nc2cc(C)ccn2)c(OC)c1` the binding response (% of control) was inconclusive: 87.9%. With `CCn1c(CSc2nc3ccccc3s2)nnc1SCC(=O)c1ccc(O)c(O)c1` the binding response (% of control) was inactive: 66.6%. In the case of `O=C(NCc1cccc(C(F)(F)F)c1)C1CC(c2ccccc2C(F)(F)F)=NO1` (stereo not given), the binding response (% of control) is reported as inconclusive: 103%. `CCCCCCCCCCCCS[C@H]1CS(=O)(=O)C[C@@H]1O` was tested, and the binding response (% of control) was inconclusive: 118%. `COc1ccc(C2N(Cc3ccccc3)CC(=O)N2/N=C(\C)c2ccccc2)cc1` (stereo not given) was tested, and the binding response (% of control) was inactive: 80.5%. In the case of `COC(=O)[C@@H]1C[C@@]2(O)[C@H](O)[C@H](O)[C@H](O)C[C@H]2N1CC1CC1`, the binding response (% of control) is reported as inconclusive: 84%. With `Cn1c(-c2ccccc2)c(C(=O)CCl)c2ccccc21` the binding response (% of control) was inconclusive: 64.6%. In the case of `CCOC(=O)N1CCN(c2c(NCCN3CCN(c4ccccc4F)CC3)c(=O)c2=O)CC1`, the binding response (% of control) is reported as inconclusive: 52.2%. In the case of `N=C(N)n1c(N)nc2ccccc2c1=O`, the binding response (% of control) is reported as inconclusive: 131%. `COC(=O)CCC(=O)OC1(C)C(=O)C=C2C=C(C3CC3)N(CCc3ccccn3)C=C2C1=O` (stereo not given) was tested, and the binding response (% of control) was inconclusive: 86.9%. `COc1ccc(C(=O)Nc2cc(C(C)=O)c(C)oc2=O)cc1` was tested, and the binding response (% of control) was inconclusive: 103%. `CCN(CC)S(=O)(=O)c1cccc(N=Nc2c(O)c3ccccc3oc2=O)c1` was tested, and the binding response (% of control) was inconclusive: 360%. With `O=C(NCc1cccnc1)c1ccccc1CCc1ccccc1` the binding response (% of control) was inconclusive: 118%. In the case of `COC(=O)CNC(=O)c1ccc(OC2CCN(C(=O)C3CC3)CC2)cc1`, the binding response (% of control) is reported as inactive: 105%. `CCOC(=O)c1sc2ncc([N+](=O)[O-])cc2c1N` was tested, and the binding response (% of control) was inconclusive: 113%. In the case of `O=S(=O)(NC(=S)Nc1ccccc1)c1ccc(F)cc1`, the binding response (% of control) is reported as inconclusive: 104%. For `Cc1ccc(S(=O)(=O)/N=C(/c2ccccc2)N2CCOCC2)c(C)c1`, the binding response (% of control) was inconclusive: 114%. `COCCn1c(SCC(=O)c2[nH]c(C)c(C(C)=O)c2C)nc2ccccc2c1=O` was tested, and the binding response (% of control) was inconclusive: 107%. `CCOC(=O)c1c(NC(=O)CN2C(=O)NC(C)(c3ccccc3)C2=O)sc(C)c1C` (stereo not given) was tested, and the binding response (% of control) was inactive: 110%. `Cc1c(Cl)cccc1NC(=S)N/N=C/c1ccccc1Cl` was tested, and the binding response (% of control) was inconclusive: 19.9%. In the case of `Oc1nc(Nc2ccccc2)sc1/C=C1\C=Nc2ccccc21`, the binding response (% of control) is reported as inconclusive: 127%. With `CCCC(=O)NC(=S)Nc1ccc(CN2CCOCC2)cc1` the binding response (% of control) was inconclusive: 105%. With `Cn1c(SCc2ccccc2)nnc1-c1ccc2nonc2c1` the binding response (% of control) was inconclusive: 148%. With `Cc1nc2ccccc2c2c1C(=O)NC2=O` the binding response (% of control) was inconclusive: 109%. `O=C(NC1CCCCC1)C(c1cccnc1)N(CCc1ccccc1)C(=O)Cc1cccs1` (stereo not given) was tested, and the binding response (% of control) was inactive: 103%. In the case of `Cc1[nH]c2ccccc2c1CCCO`, the binding response (% of control) is reported as inconclusive: 59.5%. With `O=C(NCc1ccc2c(c1)OCO2)c1ccccc1` the binding response (% of control) was inconclusive: 99.5%. For `O=C1CCS/C(=N\N=C\c2ccc(Cl)cc2Cl)N1`, the binding response (% of control) was inconclusive: 218%. `O=C1CN(C(=O)c2ccccn2)c2ccccc2N1` was tested, and the binding response (% of control) was inactive: 96.5%. `CC(c1ccccc1)N(NC(=O)C(O)(c1ccccc1)c1ccccc1)C(=O)c1ccccc1` (stereo not given) was tested, and the binding response (% of control) was inactive: 101%. With `O=C(CSc1ccccc1)NC(=O)NCc1ccccc1` the binding response (% of control) was inconclusive: 125%. For `O=C(Cc1cccc2ccccc12)N/N=C/c1ccc2cccc(O)c2n1`, the binding response (% of control) was inconclusive: 116%. For `COc1ccc(NS(=O)(=O)c2cc(NC(=O)c3ccccc3F)ccc2N2CCCC2)cc1`, the binding response (% of control) was inconclusive: 82.5%. In the case of `COc1ccc2c(Cl)c(C(=O)N/N=C3\CCCC(=O)C3)sc2c1`, the binding response (% of control) is reported as inconclusive: 101%. For `Cc1ccc(/C=C/S(=O)(=O)NCc2ccc(F)cc2)cc1`, the binding response (% of control) was inactive: 92.9%. In the case of `O=C(CSc1ncn[nH]1)NCc1ccc2c(c1)OCO2`, the binding response (% of control) is reported as inconclusive: 113%. For `COc1cscc1C(N)=O`, the binding response (% of control) was inconclusive: -131%. For `O=C(O)/C(=N/NC(=O)c1ccc(Cl)cc1)c1ccccc1`, the binding response (% of control) was inconclusive: 118%. For `N#CCC(=O)Nc1ccccc1C(=O)O`, the binding response (% of control) was inactive: 108%. With `CCCCc1nnc(NC(=O)Cn2cnc3ccccc3c2=O)s1` the binding response (% of control) was inconclusive: 100%. With `COc1cc(/C=N/Nc2cc(C)nc(NS(=O)(=O)c3ccccc3)n2)ccc1O` the binding response (% of control) was inconclusive: 100%. For `CNS(=O)(=O)c1ccc(NC(=O)c2cncc(Br)c2)cc1`, the binding response (% of control) was inconclusive: 95.4%. `COc1ccc(N(C)C(=O)c2oc(=O)c3ccccc3c2-c2ccccc2)c(OC)c1` was tested, and the binding response (% of control) was inconclusive: 84.2%. In the case of `OC(c1cc(-c2ccc(C(F)(F)F)cc2)nc(C(F)(F)F)c1)C1CCCCN1` (stereo not given), the binding response (% of control) is reported as inconclusive: 108%. In the case of `CC12COC3(C(=O)N4CCN(c5ccccn5)CC4)CC1CCC32C` (stereo not given), the binding response (% of control) is reported as inconclusive: 154%. In the case of `CC(NC(=O)c1cccnc1)C(c1cccs1)N1CCN(c2ccccc2F)CC1` (stereo not given), the binding response (% of control) is reported as inconclusive: 88.4%. With `CCCc1ccc(C(=O)NNc2cccc(C)c2)cc1` the binding response (% of control) was inconclusive: 136%. In the case of `COc1ccc(/C=C/C(=O)O)cc1S(=O)(=O)N1CCc2ccccc2C1`, the binding response (% of control) is reported as inconclusive: 109%. With `COc1ccc(N/C=C(\C(C)=O)c2ccc(OC)c(OC)c2)cc1OC` the binding response (% of control) was inactive: 101%.
